Results reported in patent US9884125B2 (Merck Sharp & Dohme Corp., priority 2013, dated 2018).

Test: peptide synthesis
Conditions: conjugation step

“N^εB29-6-((((2-oxo-2-((α-D-mannopyranosyl-(1→3)-[α-D-mannopyranosyl-(1→6)]-α-D-mannopyranosyl)-2-oxyethyl)amino) (2-oxo-2-((α-L-fucopyranosyloxy)-2-oxoethyl)amino)ethyl)amino)acetamido)-6-oxohexanoyl Human Insulin (IOC-58)” showed a conjugation yield of 51%.
